In PMC5861252:

Target: T1, His-tagged Hha (His-Hha, plasmid pET15bHisHha) (UniProt P0ACE3)
T1 sequence: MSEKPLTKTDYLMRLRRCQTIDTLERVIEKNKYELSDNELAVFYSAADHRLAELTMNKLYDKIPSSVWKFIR
Assay: affinity purification with mass spectrometry; purified His-Hha mixed with E. coli 042 total protein extract, purified again on Ni2+-agarose; the fraction coeluting with Hha analysed by LC-MS/MS; only the target purified

binding: binds
Substance: H-NS2 protein of E. coli strain 042 (endogenous)

Results are given in words; binding and its absence hold for the method and conditions named. In cells and extracts the contact can be indirect. These calls come from enrichment with a bait or labelling near it, and not all partners need be listed. Where a sequence is shown, tags or fusion partners need not be part of it.
